Out of some 53,000 sequences screened, about 3,700 (7%) were called active.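 The calls were made as follows: active = gene knockdowns whose robust z-score for IL-1 alpha signal is at least 2 or at most -2, so actives lie on both sides; inactive = the rest.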 Some of the results follow.
Experiment: Components of the Cytosolic LPS Sensing Pathway: Gene Identification via Genome-wide siRNA Screen;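 also: robust z of the log signal after scaling to non-targeting control siRNA wells of the plate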
Conditions: RAW264.7 macrophages, IL-1a HTRF, actives lie on both sides, screened at 100 nM (by protocol), cells primed 5 h with Pam3CSK4 first
Summary of the method: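 Supernatant IL-1a by HTRF from RAW264.7 cells primed with Pam3CSK4 (5 hours) and transfected with LipidA (24 hour) after 48h siRNA knockdown at 100 nM; cell viability checked with CellTiter-Glo.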
In the case of GGACAACAUGAACUGUCAGTT against Snrpd3, the z-score is reported as active: -2.74. In the case of GCAGGUACAAAUCUACUACTT against Myo7b, the z-score is reported as inactive: 0.908. With CCUCUAAGUAUAUCUUGGATT against Jmjd1c the z-score was inactive: 0.98. With GGUAAAGAGAGAUCCAUCCTT against Pphln1 the z-score was inactive: 0.307. For GCAGGAGUCACCAUACUACTT against Poglut3, the z-score was inactive: 1.67. With GCGAUGGAAACUGAAAUGCTT against Kdm4b the z-score was inactive: -0.271. For GGAAAAUGGAAUCUUCGGUTT against Pus10, the z-score was inactive: -1.4. In the case of GCUCAAUGUGACAGUGGUGTT against Elane, the z-score is reported as inactive: 0.38. For CGAGCCAUACCUUCAACUGTT against Ncoa2, the z-score was inactive: -0.815. In the case of GCACACUGAAGUGUUUGUATT against Gorasp1, the z-score is reported as inactive: 1.17. In the case of GGAGGGAAUAUGCAAAUAGTT against Ftdc2, the z-score is reported as active: 2.36. With GGUGGAAGACUUCAGUGAATT against Clgn the z-score was inactive: 0.384. With GGUUCUCUUUGAAGAAACUTT against Amotl2 the z-score was inactive: 0.0977. For GGGAAACUAUUCUAGACGCTT against H2al2a, the z-score was inactive: -0.0147. For GCUUGUCCAAUGCCUAUUCTT against Alg14, the z-score was inactive: -0.268. For GGACUUGCCACCCAGGAAATT against Apba3, the z-score was inactive: -0.175. For GGAGUGCUGUAUUUUUGUATT against Gpr68, the z-score was inactive: 0.745. With GGUCGUUGCCAACAUUGCUTT against Slc28a1 the z-score was inactive: -1.1. In the case of GGGUGAUGUGUGACAAUGUTT against Wnt2, the z-score is reported as inactive: 0.0823. With GCCCUAAUUGACUAUGAGATT against Snx5 the z-score was inactive: 0.147. In the case of CCCUAAAUCCAAAAAGGGCTT against Pik3r5, the z-score is reported as inactive: -0.678. For GCUGGAUGGAGGCAAAGCATT against C1ql1, the z-score was inactive: -1.38. With GGCUCUGACAGACAAUGGATT against Dpt the z-score was inactive: -0.565. In the case of GGGACUGUUUCUGUUAAUUTT against Esyt3, the z-score is reported as inactive: 0.214. In the case of GGUCAUUCAAGAGAUACUATT against Dennd10, the z-score is reported as inactive: -0.65. For CCAUUACCUUACCCUCCGATT against Scnm1, the z-score was inactive: 0.607. For GGUUAAUCAUCUAGAUUACTT against Dnaaf6b, the z-score was inactive: 1.16. In the case of GUCAAAAAGCAAGAAGCCUTT against Etd, the z-score is reported as inactive: -1.24. In the case of GCCCAGACUACCAUGCUUATT against Gm5535, the z-score is reported as inactive: -0.873. For CGGAACCUUACAUUAAAUGTT against Tada2a, the z-score was inactive: 0.11. For GGACCACUCUGAAUAAGACTT against Ttc12, the z-score was inactive: -1.3. For GGAAGGUGGACAGAUUGCATT against Pfkfb3, the z-score was inactive: -0.981. In the case of GGAAGAGAAAGGCAAAAAGTT against Nckap5, the z-score is reported as inactive: 0.616. With GCAUUUUUGAACAAACUUGTT against Ankar the z-score was inactive: -0.406. For GGAGCGAGGUACAACUGAATT against Mb21d2, the z-score was inactive: 0.336. In the case of GGAGCUCAACAAGUUGCUUTT against H2ac1, the z-score is reported as inactive: 0.465. For CCAUCAUGGCCUUAUCCGUTT against Rfx1, the z-score was inactive: -0.635. In the case of GGAAAACCUAGAGAAGCUGTT against Mast1, the z-score is reported as inactive: -0.56. For GGACUUCAGCCUCAUCCUGTT against Phb2, the z-score was inactive: -0.499. For GGCUUGAGUCCUGAGACCATT against Ifna11, the z-score was inactive: 0.686. For GGUAAAUGAGUAGCUUAGUTT against Baiap2l1, the z-score was inactive: -0.566. In the case of GGUAAAGUUCAAGUUAAGATT against Atp9b, the z-score is reported as inactive: 0.407. For GGCUAGAGACUUGGUUUUUTT against Nrros, the z-score was inactive: 1.96. For GGAGUCUUGUAAUGAGCUUTT against Zfp54, the z-score was inactive: 0.898. In the case of GCAGCAUAUAGAAAACCUATT against Nr1h5, the z-score is reported as inactive: 0.0263. For GGAUGUAUGAUGCAGUUAUTT against Olfr1211, the z-score was inactive: 1.89. In the case of “CCCAGGUAGAGACAUUGCUTT against 6330444E15Rik”, the z-score is reported as inactive: -1.89. For GGGCUCUGCUAGUUCAAUATT against Lpp, the z-score was inactive: 0.936. In the case of GGUUCUUUGUUACUCUAAGTT against Gabrb3, the z-score is reported as inactive: -0.437. For GGAUCUUUUCAGGUUCUAATT against Olfr659, the z-score was inactive: 0.377. In the case of GCAGAGAGAGCGUGAAUCCTT against AB124611, the z-score is reported as inactive: 0.598. With GCUGAGAGUGAACCGAUGUTT against Dyrk4 the z-score was inactive: 1.54. For GCUAAAAGGCUACGGGAGUTT against Bhlhe23, the z-score was inactive: -0.266. With GCUGGACAUCAAUACGGUGTT against Oplah the z-score was inactive: 0.206.
